{"sequences": {"note": "Sequences of proteins named here, by UniProt entry; tags and fusion partners are left off.", "UniProt Q0JBA9, entry or part of it": "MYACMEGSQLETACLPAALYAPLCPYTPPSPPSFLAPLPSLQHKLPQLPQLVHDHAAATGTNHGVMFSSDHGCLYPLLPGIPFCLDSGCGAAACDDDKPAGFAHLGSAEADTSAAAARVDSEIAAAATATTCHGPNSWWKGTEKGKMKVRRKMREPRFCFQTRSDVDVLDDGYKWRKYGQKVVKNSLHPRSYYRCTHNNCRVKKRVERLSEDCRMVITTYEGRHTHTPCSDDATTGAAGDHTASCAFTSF"}, "source": "paper PMC7819943", "about": "“Rice protein-binding microarrays: a tool to detect cis-acting elements near promoter regions in rice”", "note": "The list shows a part of the results."}
{"target": "OsWRKY34 (Oryza sativa, UniProt Q0JBA9 1-250)", "experiment": "protein-binding microarray (RPBM); PBS, 2% BSA, 51.3 ng/ul salmon testes DNA, 50 uM zinc acetate, 200 nM TF, 25 C, 1 h; high values mean tight binding", "conditions": "protein: recombinant; tags: N-terminal polyhistidine and DsRed monomer fusion (pET32a); label: CyDye5-dUTP incorporated in the synthesized complementary strand; 3' TTTTT single-stranded linker to array surface; dsDNA, one strand shown", "summary_of_the_method": "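Ni–NTA purification followed expression in E. coli BL21-CodonPlus of transcription factors fused N-terminally to a polyhistidine tag and DsRed. At 200 nM in PBS with 2% BSA, salmon testes DNA and 50 µM zinc acetate, the protein was incubated for 1 h at 25 °C with a custom Agilent array that had been primer-extended with Cy5-dUTP and blocked with 2% BSA. After washing, the array was read on an Axon 4000B scanner. The binding signal is per-feature fluorescence intensity in arbitrary units.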"}
{"sequence": "GTTAAAGCTTCCTTATTTGTCGATTATACGGACGTTCTAACGGAGTCACCTAGTGCAG", "binding signal": "8420 fluorescence intensity (a.u.)"}
{"sequence": "TTTCTTCCATACTGAAATGTGTATCTTAGCTACTGAAGCTCGGAGTCACCTAGTGCAG", "binding signal": "8440 fluorescence intensity (a.u.)"}
{"sequence": "TGTATATGTATGCACTAATGTGTTTTTCTTGTAACCTAGTCGGAGTCACCTAGTGCAG", "binding signal": "8900 fluorescence intensity (a.u.)"}
{"sequence": "GTCATCAACTTCTGCTACGACTTCCTCCGCCGCAACAGCCCGGAGTCACCTAGTGCAG", "binding signal": "8990 fluorescence intensity (a.u.)"}
{"sequence": "TATTTTGATTTTCTTTACCTTGTTTTTTAAACTGTACATTCGGAGTCACCTAGTGCAG", "binding signal": "10900 fluorescence intensity (a.u.)"}
{"sequence": "GTGCGTAGTTACATTTGGACTTCTCTGCGTTTTTTTTTTCCGGAGTCACCTAGTGCAG", "binding signal": "9530 fluorescence intensity (a.u.)"}
{"sequence": "CAGTGTTGCCGCCGTCATCCTCCCAGCGCCCTATTCACCTCGGAGTCACCTAGTGCAG", "binding signal": "9200 fluorescence intensity (a.u.)"}
{"sequence": "GCCTCTGCCAGCCGACGGCCGTTCGGCCCTCCGCGCACGCCGGAGTCACCTAGTGCAG", "binding signal": "8320 fluorescence intensity (a.u.)"}
{"sequence": "TGACGTCATCAGATTTCGGCCCAGCCCATCACGCGCGCGTCGGAGTCACCTAGTGCAG", "binding signal": "8800 fluorescence intensity (a.u.)"}
{"sequence": "ACTTTTTGTATTATGTATGAGCTGCATGTATTTTCAACCGCGGAGTCACCTAGTGCAG", "binding signal": "8800 fluorescence intensity (a.u.)"}
{"sequence": "GGCGGCACCAAAATACCACCCGCCGCCCGCCCACCGTACCCGGAGTCACCTAGTGCAG", "binding signal": "8930 fluorescence intensity (a.u.)"}
{"sequence": "ATCAATTTACTTTGCAATTTCACTATTTCGGGTGTTAAGACGGAGTCACCTAGTGCAG", "binding signal": "8350 fluorescence intensity (a.u.)"}
{"sequence": "TGACTTTTTTAAATATGTTTGACCGTTCGTCTTATTGAAACGGAGTCACCTAGTGCAG", "binding signal": "8190 fluorescence intensity (a.u.)"}
{"sequence": "GGGTGCTTGTGTGGATGATGTGAAGATACTGGCGAAAGCCCGGAGTCACCTAGTGCAG", "binding signal": "9720 fluorescence intensity (a.u.)"}
{"sequence": "GGCTTATGTTATGTGTATGTACTTTGGTCGCATCGATCGGCGGAGTCACCTAGTGCAG", "binding signal": "9120 fluorescence intensity (a.u.)"}
{"sequence": "CTTTATATCTGCAATTCTGCATCGTCTCCTCTGAAAGATTCGGAGTCACCTAGTGCAG", "binding signal": "8480 fluorescence intensity (a.u.)"}
{"sequence": "TTGTGCTCTGACTTCTTCTTCACTCTGCAGCTCTGCTCGTCGGAGTCACCTAGTGCAG", "binding signal": "8240 fluorescence intensity (a.u.)"}
{"sequence": "TAGTTTCTATTTCCGTTTGTCGTGCTCCAGATTTATGAATCGGAGTCACCTAGTGCAG", "binding signal": "8260 fluorescence intensity (a.u.)"}
{"sequence": "TCGTTAAGTGTTGTGCTTGTTCTGAACTCCTTTTTAAGTACGGAGTCACCTAGTGCAG", "binding signal": "9600 fluorescence intensity (a.u.)"}
{"sequence": "TATTAGTACACTGCATGCGCTTAGTATGTTATTTATTTTCCGGAGTCACCTAGTGCAG", "binding signal": "10300 fluorescence intensity (a.u.)"}
{"sequence": "ATGCTCTTTCTTCAGACATCTCCACCCTTCCTATCTTGATCGGAGTCACCTAGTGCAG", "binding signal": "12600 fluorescence intensity (a.u.)"}
{"sequence": "TATATATATATATATATATATATATATATATATAGTAAATCGGAGTCACCTAGTGCAG", "binding signal": "8280 fluorescence intensity (a.u.)"}
{"sequence": "CTTTTTCTCCACTGACATGTGAGGCCAACTTATTCCACGACGGAGTCACCTAGTGCAG", "binding signal": "8820 fluorescence intensity (a.u.)"}
{"sequence": "GAATTATACATGGACATATCTGCCTTGAATTTGATTGCAACGGAGTCACCTAGTGCAG", "binding signal": "8830 fluorescence intensity (a.u.)"}
{"sequence": "GATCCACGTTTTTCAACATGAATTCCCTGAGCTGTATGCTCGGAGTCACCTAGTGCAG", "binding signal": "9750 fluorescence intensity (a.u.)"}
{"sequence": "AGATCGATTGATGATATCTCTCGGTTATGACTTTTAGTAGCGGAGTCACCTAGTGCAG", "binding signal": "9070 fluorescence intensity (a.u.)"}
{"sequence": "AACTTCACAGTCAAATTTGCCAGCCAGTACACACCCCACACGGAGTCACCTAGTGCAG", "binding signal": "9840 fluorescence intensity (a.u.)"}
{"sequence": "GCATTTGGTCCAATCTCACATTCTTGACCATTTCGAGTACCGGAGTCACCTAGTGCAG", "binding signal": "10000 fluorescence intensity (a.u.)"}
{"sequence": "GTGTTAGTTTGGATTTGTGTTTGTCCTTTTTCTTTTAGCTCGGAGTCACCTAGTGCAG", "binding signal": "9040 fluorescence intensity (a.u.)"}
{"sequence": "ATCTTCCTTGTCTCTCTCAACAAACATATATCACGCTGCTCGGAGTCACCTAGTGCAG", "binding signal": "9690 fluorescence intensity (a.u.)"}
{"sequence": "CGCTGCACTTGATCCGCCGCTGCGCCGCCTCTCGATTCGACGGAGTCACCTAGTGCAG", "binding signal": "9410 fluorescence intensity (a.u.)"}
{"sequence": "GCACACCTCACTGGCACTGAGCGCACTTCACTAGGCGAGACGGAGTCACCTAGTGCAG", "binding signal": "9100 fluorescence intensity (a.u.)"}
{"sequence": "CGTTTTTGCTTGAAGTTACTGTGGTAGATTGGGGTTTTGACGGAGTCACCTAGTGCAG", "binding signal": "8900 fluorescence intensity (a.u.)"}
{"sequence": "AGGGCAGCTGCTCTGTTTTCCTGCAGGTGTATATGCTGAACGGAGTCACCTAGTGCAG", "binding signal": "8120 fluorescence intensity (a.u.)"}
{"sequence": "TCTCTGTCAGTTTTGATGTGGTTGTAATATTGGATTTGGCCGGAGTCACCTAGTGCAG", "binding signal": "9520 fluorescence intensity (a.u.)"}
{"sequence": "CCCAGCTACATAACTGGGCTAATGCGATTCCAGCATCTTACGGAGTCACCTAGTGCAG", "binding signal": "8660 fluorescence intensity (a.u.)"}
{"sequence": "AAATCTTAACCCTCTCGCCTCACTCCGTTCCGTTCCTGTGCGGAGTCACCTAGTGCAG", "binding signal": "8020 fluorescence intensity (a.u.)"}
{"sequence": "GGATGTTGTGTAAGGGTGTTAATTACTGATTGGTCATTAGCGGAGTCACCTAGTGCAG", "binding signal": "8670 fluorescence intensity (a.u.)"}
{"sequence": "GCCAACCTCCGTCCTAAAGGTGTGCCTTTTATATCTCTCCCGGAGTCACCTAGTGCAG", "binding signal": "8880 fluorescence intensity (a.u.)"}
{"sequence": "CGATCCAATCGCCGTACCAAACATAGTCTTTTATTCTCCACGGAGTCACCTAGTGCAG", "binding signal": "9500 fluorescence intensity (a.u.)"}
{"sequence": "AGGCGCCACGACGGAACGGGCGCTACATCTTATCTCTTCTCGGAGTCACCTAGTGCAG", "binding signal": "8680 fluorescence intensity (a.u.)"}
{"sequence": "TGGTTTTCTGTTTTCTTGGTTTTGGGTGGTGGCAGTTGACCGGAGTCACCTAGTGCAG", "binding signal": "23200 fluorescence intensity (a.u.)"}
